From PMC7826336
Results are given in words; binding and its absence hold for the method and conditions named.

Sequences of proteins named here, by UniProt entry; tags and fusion partners are left off. A change or cut given only in a name is not applied to a line headed by its entry.
UniProt P03952: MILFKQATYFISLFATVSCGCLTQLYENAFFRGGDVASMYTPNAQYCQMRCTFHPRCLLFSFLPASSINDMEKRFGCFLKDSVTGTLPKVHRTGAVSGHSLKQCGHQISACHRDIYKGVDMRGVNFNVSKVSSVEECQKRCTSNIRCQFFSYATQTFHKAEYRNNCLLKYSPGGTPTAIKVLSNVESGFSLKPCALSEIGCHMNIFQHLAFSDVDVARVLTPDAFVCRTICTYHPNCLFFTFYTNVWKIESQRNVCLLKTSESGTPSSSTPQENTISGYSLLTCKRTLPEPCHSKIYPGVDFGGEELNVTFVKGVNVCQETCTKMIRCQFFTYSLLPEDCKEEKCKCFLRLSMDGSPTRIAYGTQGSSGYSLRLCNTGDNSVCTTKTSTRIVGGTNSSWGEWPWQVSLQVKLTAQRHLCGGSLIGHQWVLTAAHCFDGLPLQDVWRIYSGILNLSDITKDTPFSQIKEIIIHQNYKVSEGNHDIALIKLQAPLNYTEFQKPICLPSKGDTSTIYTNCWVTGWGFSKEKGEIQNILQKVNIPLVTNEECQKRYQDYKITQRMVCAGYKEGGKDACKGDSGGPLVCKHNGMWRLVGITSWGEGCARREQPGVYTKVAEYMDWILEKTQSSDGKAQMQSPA
UniProt P00740: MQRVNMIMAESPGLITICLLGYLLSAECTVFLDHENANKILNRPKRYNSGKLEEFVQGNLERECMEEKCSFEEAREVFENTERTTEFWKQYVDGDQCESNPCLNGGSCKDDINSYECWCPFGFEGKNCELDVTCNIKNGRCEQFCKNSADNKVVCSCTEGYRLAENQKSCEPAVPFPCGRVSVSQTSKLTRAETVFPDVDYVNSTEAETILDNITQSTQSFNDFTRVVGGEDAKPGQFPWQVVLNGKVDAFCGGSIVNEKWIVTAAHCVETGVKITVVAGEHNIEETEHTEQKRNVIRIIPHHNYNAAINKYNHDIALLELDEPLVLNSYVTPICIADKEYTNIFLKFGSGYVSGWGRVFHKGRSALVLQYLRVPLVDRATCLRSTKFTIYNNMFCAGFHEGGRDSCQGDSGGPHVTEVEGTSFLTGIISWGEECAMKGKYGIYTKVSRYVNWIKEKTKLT

Target: kallikrein (PKa) (UniProt P03952)
Test: SPR; as a1, but analyte (FIX or FIXa, 250 nM) preincubated in one vessel with 250 nM HK before injection over immobilised PK or PKa; signal compared with HK alone; n = 1; both purified

## activated Factor IX (FIXa) (from UniProt P00740 47-191; P00740 227-461) (enzyme)
  binding: no binding (condition: preincubated with 250 nM HK)
